# Primary screen of a compound library

Mtb cholesterol medium: 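Growth of Mycobacterium tuberculosis over 4 days (cholesterol / DPPC medium with tyloxapol); the read-out is not stated. Concentration: 500 µM. Higher reads as more growth inhibition (inferred: compounds with an IC50 in retests scored well above the rest). Size under these conditions: about 18,000 compounds, about 900 of them at 50% or above in at least one test.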
Mtb glucose medium: 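Whole-cell growth test on Mycobacterium tuberculosis, read after 3 days in glucose-containing 7H9 medium; the read-out is not stated. Concentration: 500 µM. Higher reads as more growth inhibition (inferred: compounds with an IC50 in retests scored well above the rest). Of about 18,000 compounds tested this way, about 1,400 (7.9%) reached 50% or more in at least one test.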

Values are the deposited “Percent Effect”, in %. The record does not define 0% and 100%; most values in the screen are far below 50% and negative numbers occur (in some assays of this library far below -100). This is an unselected part of the compounds tested.

* COc1ncccc1N(C)C(=O)c1ccoc1Br : Mtb cholesterol medium: 16.53%; Mtb glucose medium: 17.4%
* CN(CCS(=O)(=O)c1ccc(Cl)cc1)CC(=O)N(C)C : Mtb cholesterol medium: 106.7%; Mtb glucose medium: 99.17%
* CCN1CC(=O)NC1c1cccc(C#N)c1 (centres unmarked) : Mtb cholesterol medium: 0.9337%; Mtb glucose medium: 12.83%
* CCSCCNC(=O)c1ccc(-n2ccnc2)cc1 : Mtb cholesterol medium: 18.85%; Mtb glucose medium: 32.81%
* CCOCC(=O)N1C[C@@H](CO)[C@H](N(C)C)C1 : Mtb cholesterol medium: -13.21%; Mtb glucose medium: -9.681%
* CCOCCN(C)Cc1csnn1 : Mtb cholesterol medium: 6.229%; Mtb glucose medium: 11.9%
* O=C(NCCO)c1nnsc1-c1ccc(Cl)cc1 : Mtb cholesterol medium: -11.33%; Mtb glucose medium: -9.826%
* Cc1ccc(F)cc1C(=O)N(C)c1ncccc1C#N : Mtb cholesterol medium: 11.95%; Mtb glucose medium: 26.34%
* CC(=O)N1CCCN(S(=O)(=O)N(C)C(C)C)CC1 : Mtb cholesterol medium: 6.026%; Mtb glucose medium: 3.17%
* Cc1nccc(C(=O)Nc2ccccn2)n1 : Mtb cholesterol medium: 1.241%; Mtb glucose medium: 6.614%
* O=C1NC(c2ccccc2)CO1 (centres unmarked) : Mtb cholesterol medium: -13.81%; Mtb glucose medium: -2.053%
* CCOCCCNC(=O)c1ccc(C#N)cc1 : Mtb cholesterol medium: 8.11%; Mtb glucose medium: 32.21%
* COc1ccc2cc(C(=O)N(C)C)c(C)nc2c1 : Mtb cholesterol medium: -16.83%; Mtb glucose medium: 3.584%
* NCCCNC1=NS(=O)(=O)c2ccccc21 : Mtb cholesterol medium: 9.788%; Mtb glucose medium: 2.926%
* Cc1nsc(NC2CCN(C)C2=O)n1 (centres unmarked) : Mtb cholesterol medium: -8.12%; Mtb glucose medium: -6.222%
* CNC(=O)CNc1ncc(C(F)(F)F)cc1Cl : Mtb cholesterol medium: 8.343%; Mtb glucose medium: 32.22%
* COC(=O)c1sccc1NC(=O)CSc1nnc(N)s1 : Mtb cholesterol medium: 23.23%; Mtb glucose medium: 21.6%
* CSc1ccc(CN(C)[C@H]2COC[C@@H]2O)cc1 : Mtb cholesterol medium: 29.44%; Mtb glucose medium: 28.67%
* Cc1cnc(N)c(C)c1 : Mtb cholesterol medium: -4.811%; Mtb glucose medium: 7.118%
* Cc1ocnc1C(=O)Nc1ncccc1Cl : Mtb cholesterol medium: -16.21%; Mtb glucose medium: -15.62%
* O=C1OCCN1CCN1CCOC1=O : Mtb cholesterol medium: 10.64%; Mtb glucose medium: 7.131%
* CN1CCCC(NC(=O)NCCc2ccncc2)C1 (centres unmarked) : Mtb cholesterol medium: 6.944%; Mtb glucose medium: 7.77%
* CC(C)CCN1CC(C(=O)N2CCCC2)CC1=O (centres unmarked) : Mtb cholesterol medium: 18.9%; Mtb glucose medium: 22.49%
* CCS(=O)(=O)CCN(C)CCC1CCCCN1C (centres unmarked) : Mtb cholesterol medium: 11.19%; Mtb glucose medium: 5.994%

From ChEMBL document CHEMBL3988442, “University of Dundee, Small-Polar-MMV Screening Library” (2021).